In patent US20200325505A1, “FILAMENTOUS FUNGI CAPABLE OF PRODUCING VERY LONG CHAIN FATTY ACIDS” (UT-Battelle, LLC, priority 2019, published 2020):

Tests used:
[1] = tested on: Mortierella elongata AG77; assay: Carbon source utilisation in Biolog 96-well plates, formazan formation after tetrazolium addition; type: cell-based
Procedure: (§1) Two 300 mL volumes of growth medium comprising 1 g/L KH2PO4, 1 g/L MgSO4 7H2O, 0.1 g/L CaCl2, 0.02 g/L FeNaEDTA, 0.1 g/L NaCl, and either 1 g/L NH4NO3 or 20 g/L sucrose were prepared. Acidity was adjusted to 5.5 using NaOH and volumes of growth medium were autoclaved 30 min at 121° C. to sterilize. Aliquots of 200 μL of carbon-free medium or nitrogen-free medium were pipetted into each well of a set of 96-well plates previously prepared with lyophilized putative carbon or nitrogen sources (Biolog Inc., Hayward, Calif.). Inocula were prepared by perforating a culture of Mortierella elongata AG77 grown on 20 g/L potato dextrose agar with a 3 mm diameter cork borer and separating the surface mycelial mat from the solid growth medium using tweezers. Each well was inoculated with one inoculum. Cultures were incubated at 21° C. for 24 hours to allow metabolic changes to stabilize, and then 100 μL of 3 g/L tetrazolium chloride in water was added to each well. Formazan formation was observed visually at 2 h, 24 h, and 148 h.
Conclusions were based on rate and intensity of formazan formation using the 3-4,5-dimethylthiazol-2-yl)-2,5-diphenyltetrazolium bromide (MTT) assay. “Metabolized” indicates more formazan formation than a control containing no carbon source, and “Toxic” indicates less formazan formation than a control containing no carbon source. “Metabolized” and “Toxic” assignments are mutually exclusive. In this example, a compound may be “Metabolized” or “Toxic,” but not both.

[2] = tested on: Mortierella elongata AG77; assay: Nitrogen source utilisation in Biolog 96-well plates, formazan formation after tetrazolium addition; type: cell-based; conditions: compound as nitrogen source
Procedure: as §1, with “Acidity was adjusted to 5.5 using NaOH and volumes of growth medium were autoclaved 30 min at 121° C. to sterilize.” left out, “well.” for “well. Formazan formation was observed visually at 2 h, 24 h, and 148 h.”
Conclusions were based on rate and intensity of formazan formation using the 3-(4,5-dimethylthiazol-2-yl)-2,5-diphenyltetrazolium bromide ([…]) assay. “Metabolized” indicates more formazan formation than a control containing no nitrogen source, and “Toxic” indicates less formazan formation than a control containing no nitrogen source, “Metabolized” and “Toxic” assignments are mutually exclusive. In this example, a compound may be “Metabolized” or “Toxic,” but not both.

## NCCC[C@H](N)C(=O)O [L-Ornithine]
[1]; compound as carbon source, Metabolized = more formazan formation than a control containing no carbon source, observed visually at 2 h, 24 h, 148 h
  Metabolized: yes
[1]; compound as carbon source, Toxic = less formazan formation than a control containing no carbon source
  Toxic: no
[1]; summary of Table 3
  Carbon sources that Mortierella elongata AG77 can metabolize: can metabolize
[2]; Metabolized = more formazan formation than a control containing no nitrogen source, observed visually at 2 h, 24 h, 148 h
  Metabolized: no
[2]; Toxic = less formazan formation than a control containing no nitrogen source
  Toxic: no
